Data from paper PMC4763541, “Pitchfork and Gprasp2 Target Smoothened to the Primary Cilium for Hedgehog Pathway Activation” (PLoS ONE, 2016).
Results are given in words; binding and its absence hold for the method and conditions named. Binding seen in cells or lysates may run through a third protein. A result given as binding can be weak or reduced; the word gives no strength.

Target: T1, Strep-Tactin sepharose-coupled mPifo (immobilized mouse Pitchfork) (mouse) (UniProt Q9D9W1)
T1 sequence: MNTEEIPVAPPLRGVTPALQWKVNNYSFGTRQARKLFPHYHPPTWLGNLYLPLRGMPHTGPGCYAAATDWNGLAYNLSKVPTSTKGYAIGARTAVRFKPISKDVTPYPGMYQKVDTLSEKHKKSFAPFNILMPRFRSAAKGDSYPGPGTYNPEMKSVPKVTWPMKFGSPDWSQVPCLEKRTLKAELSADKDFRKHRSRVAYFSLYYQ
Experiment: pull-down; Strep-Tactin sepharose-coupled mPifo, time-resolved affinity precipitation from lysates of mouse primary limb bud cultures treated with Shh for 0 to 48 h; also after control siRNA and after Gprasp2 siRNA with HA-hGPRASP2 rescue; immunoblot; only the target purified

- binding: binds
Substance: endogenous Dynein IC, retrograde motor protein subunit (mouse (endogenous in PLCs))
